According to paper PMC5615048:
Results are given in words; binding and its absence hold for the method and conditions named. Binding seen in cells or lysates may run through a third protein. Some entries that bind do so weakly or less than the wild type.

Protein sequences, listed by entry. Tags and fused reporters are not part of them.
UniProt Q99PV8: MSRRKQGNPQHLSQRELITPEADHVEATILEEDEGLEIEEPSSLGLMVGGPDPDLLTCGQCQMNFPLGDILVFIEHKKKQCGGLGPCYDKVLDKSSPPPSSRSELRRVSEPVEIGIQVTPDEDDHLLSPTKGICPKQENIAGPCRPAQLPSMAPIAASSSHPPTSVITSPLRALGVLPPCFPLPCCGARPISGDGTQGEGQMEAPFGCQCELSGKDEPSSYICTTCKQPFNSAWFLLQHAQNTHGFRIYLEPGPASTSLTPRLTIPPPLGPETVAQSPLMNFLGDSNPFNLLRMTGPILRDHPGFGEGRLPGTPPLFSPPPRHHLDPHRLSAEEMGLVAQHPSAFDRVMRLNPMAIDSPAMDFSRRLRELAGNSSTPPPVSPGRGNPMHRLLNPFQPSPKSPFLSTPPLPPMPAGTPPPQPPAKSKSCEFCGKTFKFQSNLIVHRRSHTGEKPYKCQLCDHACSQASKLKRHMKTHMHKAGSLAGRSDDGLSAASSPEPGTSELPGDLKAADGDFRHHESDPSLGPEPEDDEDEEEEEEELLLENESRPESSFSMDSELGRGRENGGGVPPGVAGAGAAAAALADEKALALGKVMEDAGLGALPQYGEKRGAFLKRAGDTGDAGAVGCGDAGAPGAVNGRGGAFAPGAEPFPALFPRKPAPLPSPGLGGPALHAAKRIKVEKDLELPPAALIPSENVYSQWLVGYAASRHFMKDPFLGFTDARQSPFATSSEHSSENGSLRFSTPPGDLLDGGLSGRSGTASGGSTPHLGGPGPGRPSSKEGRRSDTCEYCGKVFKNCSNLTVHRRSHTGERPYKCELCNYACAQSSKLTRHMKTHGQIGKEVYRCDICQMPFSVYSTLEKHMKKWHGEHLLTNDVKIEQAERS
UniProt Q03347: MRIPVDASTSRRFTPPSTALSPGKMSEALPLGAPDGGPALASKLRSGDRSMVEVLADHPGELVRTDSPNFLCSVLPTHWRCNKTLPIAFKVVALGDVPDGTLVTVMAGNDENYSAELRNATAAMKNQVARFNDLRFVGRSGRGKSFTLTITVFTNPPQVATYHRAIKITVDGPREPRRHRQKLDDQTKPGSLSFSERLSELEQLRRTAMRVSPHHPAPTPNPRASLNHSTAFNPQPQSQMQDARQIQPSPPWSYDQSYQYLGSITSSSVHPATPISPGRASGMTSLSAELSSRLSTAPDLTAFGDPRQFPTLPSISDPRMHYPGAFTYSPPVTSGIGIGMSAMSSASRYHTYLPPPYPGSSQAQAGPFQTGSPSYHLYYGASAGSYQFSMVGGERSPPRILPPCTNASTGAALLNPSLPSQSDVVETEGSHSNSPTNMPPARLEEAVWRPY

Target: Bcl11b (mouse (endogenous in thymocytes)) (UniProt Q99PV8)
Assay: co-IP; nuclear extract of 10 x 10^6 total thymocytes (NE-PER kit) incubated with anti-Bcl11b antibody (A300-383A) pre-mixed with Dynabeads ProteinA, overnight at 4 °C; western blot with anti-Runx1 serum

- binding: binds
Substance: Runx1 (from UniProt Q03347 1-451)
